Reference: PMC7819943, “Rice protein-binding microarrays: a tool to detect cis-acting elements near promoter regions in rice”
The list shows a part of the results.

Protein sequences, listed by entry. Tags and fused reporters are not part of them.
UniProt Q0JBA9, entry or part of it: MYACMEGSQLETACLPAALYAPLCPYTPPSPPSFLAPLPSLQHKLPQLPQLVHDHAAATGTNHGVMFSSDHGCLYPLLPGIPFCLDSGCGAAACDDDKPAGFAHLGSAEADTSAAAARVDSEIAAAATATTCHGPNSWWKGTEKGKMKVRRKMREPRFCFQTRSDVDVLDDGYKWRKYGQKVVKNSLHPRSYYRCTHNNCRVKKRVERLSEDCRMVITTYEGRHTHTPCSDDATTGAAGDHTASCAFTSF

Each sequence was assayed against OsWRKY34 (Oryza sativa, UniProt Q0JBA9 1-250) (assay: protein-binding microarray (RPBM); PBS, 2% BSA, 51.3 ng/ul salmon testes DNA, 50 uM zinc acetate, 200 nM TF, 25 C, 1 h; high values mean tight binding). Settings: protein: recombinant; tags: N-terminal polyhistidine and DsRed monomer fusion (pET32a); label: CyDye5-dUTP incorporated in the synthesized complementary strand; 3' TTTTT single-stranded linker to array surface; dsDNA, one strand shown.
Procedure, shortened: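 Per-feature fluorescence intensity (arbitrary units), read on an Axon 4000B scanner, is the binding signal. Transcription factors carrying an N-terminal polyhistidine tag and DsRed fusion were expressed in E. coli BL21-CodonPlus and purified on Ni–NTA. A custom Agilent array, made double-stranded by primer extension with Cy5-dUTP and blocked with 2% BSA, was incubated with 200 nM protein in PBS, 2% BSA, salmon testes DNA and 50 µM zinc acetate at 25 °C for 1 h and then washed.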

Sequence	binding signal
TGTCACCTTCCGCTGTCATTTCTACGCCCACTCTCTCTTACGGAGTCACCTAGTGCAG	8950 fluorescence intensity (a.u.)
AACTTTGAGCAGTCGTTATTACTAGCTTCATTGTGGGGTTCGGAGTCACCTAGTGCAG	8300 fluorescence intensity (a.u.)
TCCTTGCTCGCCGCTCGCGTTCGTCGTCGTCTCGTCGTTTCGGAGTCACCTAGTGCAG	8930 fluorescence intensity (a.u.)
TTTGAAGCACTGAAATCTTTTCTGTTTTTGTTGTTTCGCTCGGAGTCACCTAGTGCAG	8390 fluorescence intensity (a.u.)
GTTAGTAATACTTGATGGTCTTTTCTCCTTGGCCTTTCGTCGGAGTCACCTAGTGCAG	10400 fluorescence intensity (a.u.)
CTGCTTTTTCTACCCTCGATATATATTGTGCTAGATACTACGGAGTCACCTAGTGCAG	12500 fluorescence intensity (a.u.)
TCTTTTTGTCCTTTGCTACTCTACCTATATATGCAAAGTTCGGAGTCACCTAGTGCAG	10300 fluorescence intensity (a.u.)
GGTCAGATTTTCACCTTTTGGTGGCAACGTTGTTTTGCCACGGAGTCACCTAGTGCAG	9060 fluorescence intensity (a.u.)
TTTGTCCAGAATCGTTGTCCTAAGTGGTGTCACATCCTCACGGAGTCACCTAGTGCAG	12000 fluorescence intensity (a.u.)
GTACACTCTCCACCATGTATTAATTTTTTTCATCCAATAACGGAGTCACCTAGTGCAG	11300 fluorescence intensity (a.u.)
TAGGCATGTTTGGTACGGCTCCAACTCTAGCTTCAACTCTCGGAGTCACCTAGTGCAG	8130 fluorescence intensity (a.u.)
GGAGGGAGACGGGTGGGGATCAGCCGCCGAGGACGGGGAGCGGAGTCACCTAGTGCAG	9110 fluorescence intensity (a.u.)
GAATCAATCTCACGTACGGTAAGTCTTTCATTTTCCTGCCCGGAGTCACCTAGTGCAG	8570 fluorescence intensity (a.u.)
TGTGTGTGGCCGCCTTAAACCCTAAACCCTCTCAACCATGCGGAGTCACCTAGTGCAG	8810 fluorescence intensity (a.u.)
TGACACCGTTGACTTTTCGACCAATGTTTGACCATTCGTTCGGAGTCACCTAGTGCAG	24400 fluorescence intensity (a.u.)
CGTTGCAAGGTGGTGTGAGTTGTTTTCCTGGATTCTTGAACGGAGTCACCTAGTGCAG	9750 fluorescence intensity (a.u.)
GTGGCCTCCGGCGAGGTCGAGCACCTCTTTCCTATCACGCCGGAGTCACCTAGTGCAG	8440 fluorescence intensity (a.u.)
AGTTCTCTGATTTTGGATGGGGATTTGCTTGATGGATCCGCGGAGTCACCTAGTGCAG	13200 fluorescence intensity (a.u.)
GGGGCTCACGCTGACTCCGCGTTATTGACTCGGGTCAAATCGGAGTCACCTAGTGCAG	9490 fluorescence intensity (a.u.)
TCTGGTCGTTACCTAATTTGCATGCTCGTTTCTTGTGGTGCGGAGTCACCTAGTGCAG	8540 fluorescence intensity (a.u.)
AACCCAACCAACGAAAAATTGCCGCGACCATCAGCTTGTCCGGAGTCACCTAGTGCAG	8570 fluorescence intensity (a.u.)

Sequence	binding signal
GGTCCCTATTAGGTTATCTTTTTGTTCTTGTAATGGTTATCGGAGTCACCTAGTGCAG	9590 fluorescence intensity (a.u.)
TCCACACACCCCGCTTGCTAACCAACCGTGACACGCAACCCGGAGTCACCTAGTGCAG	10100 fluorescence intensity (a.u.)
CTATGGTTTTTACTGGGCACTTGAGTTGTTGGGCTGGGCACGGAGTCACCTAGTGCAG	12300 fluorescence intensity (a.u.)
GGAGGAGGCTGGTAGGGGAGGCGGGAGTCCGGCGGCGAGGCGGAGTCACCTAGTGCAG	8640 fluorescence intensity (a.u.)
AAATTTTCATATCTCTCTCCTCCTTTTTTTCCCTTTTTCCCGGAGTCACCTAGTGCAG	9900 fluorescence intensity (a.u.)
GACAACCTGGAGCCCGACGACGACGAGGGGATGGGGAGGGCGGAGTCACCTAGTGCAG	8810 fluorescence intensity (a.u.)
GGGAGGGGCGGCGATCTCCATCTGGCGAGCGAGCAGAGCACGGAGTCACCTAGTGCAG	8510 fluorescence intensity (a.u.)
ACATGTACTCTAGGTCTCTAGTATCCTTGGCGCCGTTAAACGGAGTCACCTAGTGCAG	8650 fluorescence intensity (a.u.)
TAATGACGTTCTAGTGTCCCTGTTCGTTTTTCGTGTCACCCGGAGTCACCTAGTGCAG	12500 fluorescence intensity (a.u.)
ATGTCTATCAACCCTTTATTTATGTTATTGTTCATGTTTGCGGAGTCACCTAGTGCAG	9860 fluorescence intensity (a.u.)
GTACACGCCTACCACACTTATGTTATTACTGGTGGCTCTACGGAGTCACCTAGTGCAG	8970 fluorescence intensity (a.u.)
ACCCCACCTACACACTCTTCTTCCTCCTCTTCCTTCTTCTCGGAGTCACCTAGTGCAG	10100 fluorescence intensity (a.u.)
ACGCTGCAATGGCATCTTCCCCTGTCCTTCGCGTACGTGACGGAGTCACCTAGTGCAG	8340 fluorescence intensity (a.u.)
ACCCATTTTCAGGTTTTTTAGCTATATTTAATTAACCATGCGGAGTCACCTAGTGCAG	10800 fluorescence intensity (a.u.)
TTCCATTGGTATATTGTCTCATTGAGTTAGTATTGCTTTTCGGAGTCACCTAGTGCAG	9480 fluorescence intensity (a.u.)
GGTCGACTCCTTCTACCGCCGCGACCTCCCCGATCTCCTGCGGAGTCACCTAGTGCAG	9130 fluorescence intensity (a.u.)
CTCACAAACTTATGCTCCCTATTGTCATTTTGGTACCTATCGGAGTCACCTAGTGCAG	9340 fluorescence intensity (a.u.)
GTGTAAGTGGTAAGTTTGTTGCTTTGCAAATGCTTTGCATCGGAGTCACCTAGTGCAG	9870 fluorescence intensity (a.u.)
TTAATTGTTTTTGGGTCCAATCTTCTTTTTTTTTTGACATCGGAGTCACCTAGTGCAG	15300 fluorescence intensity (a.u.)
GACCTGGGCATGGGGAGGGAGTACTGGTCACCTTCACCACCGGAGTCACCTAGTGCAG	10600 fluorescence intensity (a.u.)
GACCATCTCGCGTCGCTCCTCCGGCCATCTCTTCAGTTCCCGGAGTCACCTAGTGCAG	10200 fluorescence intensity (a.u.)

Sequence	binding signal
CACTTTTGGTCAATATACACACTCCGTAATCACCCGGTACCGGAGTCACCTAGTGCAG	8180 fluorescence intensity (a.u.)
GCAGTTGGAATATTTTGTTTGGGTTCAGGTGCTACCATTGCGGAGTCACCTAGTGCAG	8210 fluorescence intensity (a.u.)
TACTTAATCTGATGTTATCTAGCTATCTTACACGTTATTTCGGAGTCACCTAGTGCAG	8830 fluorescence intensity (a.u.)
CTTATCTTTCTCCTCCAGCTTGCTACCTCGTCTTTCCTCCCGGAGTCACCTAGTGCAG	8180 fluorescence intensity (a.u.)
GTCGCCTATAAGTACCTGAGCCCGGGAGCACCGCTCTCTTCGGAGTCACCTAGTGCAG	8760 fluorescence intensity (a.u.)
GTTTGGGGTGTCAAATGTCCGGTATTATAGTTTAAGTGGGCGGAGTCACCTAGTGCAG	8860 fluorescence intensity (a.u.)
GCCTCCACTTCCCTTTTGGCCGTCCATCTCTCCTCTCCTCCGGAGTCACCTAGTGCAG	11000 fluorescence intensity (a.u.)
ACGCCGTCGCCGTCCATGTACCATCGATCGTGCACGATCCCGGAGTCACCTAGTGCAG	10800 fluorescence intensity (a.u.)
TGTTTCTACCTGTTTTGTAGGGATGTGATGCGTCAGTTTTCGGAGTCACCTAGTGCAG	9440 fluorescence intensity (a.u.)
TCTAAGATTTGCTCAATTGCTAGTCTGGTTCTGTTCCCGACGGAGTCACCTAGTGCAG	8140 fluorescence intensity (a.u.)
TACTGTATAGTTGTTACAACTTCCTTTTTAATTATTCAATCGGAGTCACCTAGTGCAG	8060 fluorescence intensity (a.u.)
CCTTTTGTACGTTTTTTTTTTCCTTTTTTCTTTCGAGAACCGGAGTCACCTAGTGCAG	10100 fluorescence intensity (a.u.)
CAATTTCGAGCTTCGTATCAGCATATGCTATTCCCTATTGCGGAGTCACCTAGTGCAG	10500 fluorescence intensity (a.u.)
AGTTGGATAGTTACATATGAATTTTTTTTCTACCACATTCCGGAGTCACCTAGTGCAG	11700 fluorescence intensity (a.u.)
ATATATATATATATATATATATATATATATATAGGGACAGCGGAGTCACCTAGTGCAG	9530 fluorescence intensity (a.u.)
TAATTCCCTGCATCATGCCTCTATTCCGGTATGACTTGCTCGGAGTCACCTAGTGCAG	8690 fluorescence intensity (a.u.)
ATGTACCGTTCACACCTATTTTATCACGTGTCCTTGTGCCCGGAGTCACCTAGTGCAG	9170 fluorescence intensity (a.u.)
ATAAGAGCGGTGAAGTCGGCTGTGGCGTTGACCACCGACGCGGAGTCACCTAGTGCAG	11100 fluorescence intensity (a.u.)
TTTAGATCCCACTCCAAAATTTTACATGCTGTCACATCAACGGAGTCACCTAGTGCAG	8300 fluorescence intensity (a.u.)
CCACTGTTCACTCTAATTTTGGCCGTCCGATCCTTCCGCGCGGAGTCACCTAGTGCAG	11400 fluorescence intensity (a.u.)
TTTCACTTTGACTAGAAGCACATGTCATCGATTTTCCTTCCGGAGTCACCTAGTGCAG	9470 fluorescence intensity (a.u.)

Sequence	binding signal
CGAATATGTATAAAAATCCTTGTCCCTGTCTATTTTACCTCGGAGTCACCTAGTGCAG	8390 fluorescence intensity (a.u.)
ATGCATCTTGCGCGCCCACGTACGCTCCATCATCTCTGGACGGAGTCACCTAGTGCAG	9110 fluorescence intensity (a.u.)
CGCCCACCCACGCATCCATCCATCGATCGCAGCCAAATTCCGGAGTCACCTAGTGCAG	9430 fluorescence intensity (a.u.)
GCATCACTGCCTCACTGGCTCACTGCATCAGTTGATCGCCCGGAGTCACCTAGTGCAG	9160 fluorescence intensity (a.u.)
CCAGCCGGCACGCCGATCCGATCCGTCCCACCCACCCACGCGGAGTCACCTAGTGCAG	8460 fluorescence intensity (a.u.)
ACTACGACCAAATCACGCACCTTCGCTCTCTTTTCCATTGCGGAGTCACCTAGTGCAG	12700 fluorescence intensity (a.u.)
ACTTTATATAGCTCACCTATCATGACAAACTCTATTAATTCGGAGTCACCTAGTGCAG	10800 fluorescence intensity (a.u.)
GCTTATCAAATTTTGCAGAGGACTTCTACCAATCCGGGCCCGGAGTCACCTAGTGCAG	9860 fluorescence intensity (a.u.)
CTTCTTGATTGATTTATACTAACTGCGCACACACTTTATTCGGAGTCACCTAGTGCAG	8490 fluorescence intensity (a.u.)
TCAAACCTTCCAACGCGTGAAGAGTCCGCGTCCATACATACGGAGTCACCTAGTGCAG	8720 fluorescence intensity (a.u.)
CTGCCGCCTACAACAACCGCGCGCTATCCAATGGAGGAAACGGAGTCACCTAGTGCAG	8070 fluorescence intensity (a.u.)
CCTTTCCGTTTTTCTCCATTTCGCTGACACGGCACGCGCACGGAGTCACCTAGTGCAG	8890 fluorescence intensity (a.u.)
ACAATCATACAATAATTCGTCGCTCCATTATTTGTGCCATCGGAGTCACCTAGTGCAG	8120 fluorescence intensity (a.u.)
GCGAGCCGTATACATTGATATTCATGTAACTTTTACTTAACGGAGTCACCTAGTGCAG	8570 fluorescence intensity (a.u.)
ATACCAACATTCTACCACCCCAGTTTCAAATTTTTTTTTTCGGAGTCACCTAGTGCAG	9580 fluorescence intensity (a.u.)
ATTCCCGGGCCCGCACGTCAGCGTCAGCAACCCAGCCCAACGGAGTCACCTAGTGCAG	8470 fluorescence intensity (a.u.)
ATCATCAATTTTTTCGCATGGTACTAAGTACGTATGTTTTCGGAGTCACCTAGTGCAG	9010 fluorescence intensity (a.u.)
CCCCTCACTCACATCACAGCCGCTTGTTCTCTTACCATTTCGGAGTCACCTAGTGCAG	11300 fluorescence intensity (a.u.)
TCCCATGCCCACTTTGCATTCTAATTCGACATCGCCAACACGGAGTCACCTAGTGCAG	8630 fluorescence intensity (a.u.)
GTCGTTTAACTATCCGTCTTATTTTTAAAAAATATGAATTCGGAGTCACCTAGTGCAG	8420 fluorescence intensity (a.u.)
TACCACCCTTATCGATCTCTATCTGGTTTCCTTTACCTTTCGGAGTCACCTAGTGCAG	8410 fluorescence intensity (a.u.)
